Source: PubChem BioAssay AID1487 (National Center for Advancing Translational Sciences (NCATS), 2009)
Some of the results follow. Further columns of the screen follow, without active or inactive calls. Most of these compounds were active or inconclusive in the main read-out, so they are no random draw. Potencies come from curve fits of mixed quality, noted in brackets.

Assay: qHTS Assay for Modulators of Lamin A Splicing
Details: HeLa LMNA splicing GFP/RFP minigene ratio, 48 h
In short: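 S3 HeLa stable clones carrying a lamin A-EGFP splicing minigene plus DsRed2 were seeded at 600 cells/well in Opti-MEM with 2% FBS, pin-dosed and incubated 48 h at 37°C. Acumen cytometry (488 nm) gave the GFP/RFP total-intensity ratio.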

[1] = measured here: GFP splicing reporter channel
[2] = measured here: RFP viability control channel

| Compound | AC50 [1] | AC50 [2] |
| --- | --- | --- |
| CCC1CN(C(=O)N2CCC(C(=O)NCCc3ccccc3Cl)CC2)c2cc(C)ccc2O1 (stereo not given) | 35.5 µM [falling, single point] | 22.4 µM [falling, single point] |
| Cc1ccc(NC(=O)CN2C(=O)/C(=C\c3cccs3)SC2=S)cc1 |  | 0.562 µM [rising, full curve, poor fit] |
| Cc1cc2c(cc1C)C(c1cccc([N+](=O)[O-])c1)CC(=O)N2 (stereo not given) | 15.8 µM [rising, partial curve, poor fit] | 14.1 µM [rising, single point] |
| O=C(Nc1ccn(Cc2ccc(F)cc2)n1)c1ccncc1 |  | 11.2 µM [rising, partial curve] |
| OC(CN=c1sc2ccccc2n1CC(O)COc1ccccc1)COc1ccccc1 (stereo not given) | 35.5 µM [falling, single point] | 35.5 µM [falling, single point] |
| COc1ccc2oc(-c3ccc(NC(=O)c4ccc(N5CCOCC5)c([N+](=O)[O-])c4)cc3)nc2c1 |  | 35.5 µM [rising, single point] |
| O=C1C=C(NCCN2CCOCC2)C(=O)c2cnccc21 | 3.16 µM [falling, partial curve] | 3.98 µM [falling, partial curve] |
| CCOC(=O)C1CCCN(C(=O)Cn2cnc3c2c(=O)n(C)c(=O)n3C)C1 (stereo not given) |  | 0.01 µM [rising, full curve, poor fit] |
| O=C(CSc1ncnc2c1sc1ccccc12)Nc1ccc(Br)cc1 | 0.158 µM [falling, full curve, poor fit] |  |
| Cc1cccc(Nc2nnc(SCC(=O)NC3CCCc4ccccc43)s2)c1C (stereo not given) |  | 7.94 µM [rising, partial curve] |
| C/C(=N\NC(=O)c1cc(-c2cccc([N+](=O)[O-])c2)n[nH]1)c1ccccc1O | 31.6 µM [rising, single point] | 35.5 µM [rising, single point] |
| COc1ccc(-c2cc(C(=O)OC(C)C(=O)Nc3c(C)n(C)n(-c4ccccc4)c3=O)c3ccccc3n2)cc1 (stereo not given) |  | 10 µM [rising, partial curve, poor fit] |
| CC1Cc2ccccc2N1C(=O)c1ccc(N2CCCC2)c([N+](=O)[O-])c1 (stereo not given) |  | 31.6 µM [rising, single point] |
| COC(=O)c1cc(=O)n(-c2ccccc2)c(=Nc2ccccc2)s1 | 2.82 µM [rising, full curve, poor fit] | 14.1 µM [rising, partial curve] |
| O=C1NC2(CCCCC2)NN1c1ccccc1 | 12.6 µM [rising, partial curve] | 12.6 µM [rising, partial curve, poor fit] |
| CCOC(=O)c1cnc(SCc2ccc(C(C)(C)C)cc2)nc1N |  | 14.1 µM [rising, single point] |
| CCNC(=O)CCc1nc(-c2ccc(C(C)(C)C)cc2)no1 | 12.6 µM [rising, single point] | 17.8 µM [rising, single point] |
| CN1CCN(c2ccc(Cl)cc2NC(=O)C2COc3ccccc3O2)CC1 (stereo not given) |  | 7.08 µM [rising, full curve, poor fit] |
| CN1CCc2c(sc(NC(=O)CSc3ccccc3)c2-c2nc3ccccc3s2)C1 |  | 20 µM [falling, partial curve, poor fit] |
| O=C(NCCCc1ccccc1)Nc1cccc(Cl)c1 |  | 15.8 µM [rising, partial curve] |
| COCCSc1ccccc1C(=O)N1CCN(c2ccccc2)CC1 | 0.316 µM [rising, full curve, poor fit] | 1.41 µM [rising, full curve, poor fit] |
| Cc1cc(NC(=S)N(CCCN2CCOCC2)Cc2ccco2)ccc1Cl |  | 20 µM [rising, partial curve, poor fit] |
| CC(=O)c1c(C)oc2c1cc(NS(=O)(=O)c1ccc(Br)cc1)c1ccccc12 |  | 0.0891 µM [rising, full curve, poor fit] |
| CCCCNC(=O)c1ccc2c(c1)ncn2-c1cc(OC)ccc1OC |  | 1.41 µM [falling, full curve, poor fit] |
| CCc1ccc2c(c1)C(=O)C(=O)N2CC(=O)Nc1ccc(NC(=O)c2ccccn2)cc1 |  | 11.2 µM [falling, single point] |
| Cc1cc(C)n(CC(C)C(=O)O)n1 (stereo not given) |  | 5.01 µM [falling, partial curve] |
| Nc1cccc(C(=O)OCC(=O)NC2CCCc3ccccc32)c1 (stereo not given) | 6.31 µM [rising, single point] |  |

Part of the list above in order of formula weight, smallest number first:

| Compound | AC50 [1] | AC50 [2] |
| --- | --- | --- |
| O=C1C=C(NCCN2CCOCC2)C(=O)c2cnccc21 | 3.16 µM [falling, partial curve] | 3.98 µM [falling, partial curve] |
| Cc1cc2c(cc1C)C(c1cccc([N+](=O)[O-])c1)CC(=O)N2 (stereo not given) | 15.8 µM [rising, partial curve, poor fit] | 14.1 µM [rising, single point] |
| COC(=O)c1cc(=O)n(-c2ccccc2)c(=Nc2ccccc2)s1 | 2.82 µM [rising, full curve, poor fit] | 14.1 µM [rising, partial curve] |
| CN1CCN(c2ccc(Cl)cc2NC(=O)C2COc3ccccc3O2)CC1 (stereo not given) |  | 7.08 µM [rising, full curve, poor fit] |

(list continues)

| Compound | AC50 [1] | AC50 [2] |
| --- | --- | --- |
| COc1ccc2[nH]cc(CCNc3nc(-c4cccnc4)nc4ccccc34)c2c1 | 14.1 µM [falling, partial curve] | 20 µM [falling, partial curve] |
| COC(=O)c1ccc(NC(=O)CCn2cnnn2)cc1 |  | 3.16 µM [falling, partial curve, poor fit] |
| CCc1ccccc1NNC(=O)c1cc(C)on1 | 35.5 µM [rising, single point] |  |
| CCn1cc(/C=C/C(=O)Nc2ccc(C)cc2Br)cn1 | 3.16 µM [rising, single point] | 35.5 µM [rising, single point] |
| Cc1cc(C)c(S(=O)(=O)Nc2ccc3c4c(cccc24)CC3)c(C)c1 | 1 µM [falling, full curve] | 1.26 µM [falling, full curve] |
| COCCNC(=O)CCCn1c(=O)c2cc(OC)c(OC)cc2n(CC(=O)c2ccccc2)c1=O | 0.562 µM [falling, full curve, poor fit] |  |
| Cc1ccc(C)c(NC(=S)NCc2ccc3[nH]c4c(c3c2)CCCC4)c1 | 35.5 µM [rising, single point] | 35.5 µM [rising, single point] |
| Cc1ccc(C)c(OCCCCn2cnc3ccccc3c2=O)c1 |  | 11.2 µM [rising, partial curve] |
| COc1ccccc1/C=C/CN1CCC(CO)(Cc2ccccc2)CC1 | 0.631 µM [falling, full curve, poor fit] | 1.26 µM [falling, full curve] |
| Cc1ccc(-n2nnnc2CNC(=O)c2cc(C(F)(F)F)cc(C(F)(F)F)c2)cc1C | 0.708 µM [rising, full curve, poor fit] | 0.708 µM [rising, full curve, poor fit] |
| COCCNC(=O)C(c1ccco1)N(Cc1ccc(OC)cc1)C(=O)Cn1nnc2ccccc21 (stereo not given) | 0.00447 µM [falling, full curve, poor fit] | 0.00447 µM [falling, full curve, poor fit] |
| CCCOc1cc(C)nc(-c2ccccc2O)n1 |  | 0.708 µM [falling, partial curve, poor fit] |
| O=C(Cn1nc(C(F)(F)F)c2c1CCCC2)Nc1ccc(Br)cc1 | 5.62 µM [falling, partial curve] | 3.98 µM [falling, partial curve] |
| CCOC(=O)c1c(NC(=O)CSc2nnc(C)c(=O)[nH]2)sc2c1CCCC2 |  | 0.178 µM [falling, full curve] |
| COc1ccc(S(=O)(=O)Nc2ccc(-c3cn4c(C)csc4n3)cc2)cc1 | 0.562 µM [rising, full curve] |  |
| CCOC(=O)N1CCN(CC(=O)Nc2ccc([N+](=O)[O-])cc2C(=O)Nc2ccccc2F)CC1 |  | 14.1 µM [rising, partial curve] |
| C=CCNC(=O)C1CC1(c1ccccc1)c1ccccc1 (stereo not given) |  | 0.316 µM [falling, full curve, poor fit] |
| Cc1cc(Oc2ccccc2)nc(SCC(=O)Nc2ccc(Cl)c(Cl)c2)n1 |  | 7.94 µM [rising, partial curve] |
| CC1CCN(CC(C)CNC(=O)c2cc(-c3ccccn3)nc3ccccc23)CC1 (stereo not given) | 20 µM [falling, single point] | 35.5 µM [falling, single point] |
| CCC(=O)NCc1csc(-c2cccs2)n1 |  | 7.08 µM [falling, partial curve, poor fit] |
| COc1ccc(C(CNC(=O)c2ccc(N3CCCC3=O)cc2)N(C)C)cc1 (stereo not given) |  | 14.1 µM [rising, single point] |
| CC(=O)OCC(=O)[C@@]1(OC(C)=O)[C@@H](C)C[C@H]2[C@@H]3C[C@H](F)C4=CC(=O)C=C[C@]4(C)[C@@]3(F)[C@@H](O)C[C@@]21C | 4.47 µM [falling, single point] | 0.000891 µM [falling, full curve, poor fit] |
| Nc1ccc2c(c1)COc1ccccc1O2 |  | 15.8 µM [rising, partial curve] |
| COCCNC(C(=O)Nc1ccc([N+](=O)[O-])cc1Br)c1ccccc1 (stereo not given) | 17.8 µM [rising, single point] |  |
| Cc1cc(C)cc(NC(=O)c2cc(CN3CCCC3)on2)c1 |  | 0.00501 µM [falling, full curve, poor fit] |
| CNC(=O)CN1C(=O)NC(Cc2c[nH]c3ccccc23)C1=O (stereo not given) | 3.98 µM [rising, full curve, poor fit] | 3.98 µM [rising, full curve, poor fit] |
| COc1cccc(C(=O)Nc2c3c(nn2-c2cccc(C)c2C)CS(=O)C3)c1OC (stereo not given) | 20 µM [rising, partial curve, poor fit] | 17.8 µM [rising, partial curve] |
